Consider 3 molecules from PMC8406304, “Inhibiting Type VI Secretion System Activity with a Biomimetic Peptide Designed To Target the Baseplate Wedge Complex” (mBio, 2021).

The target of experiment [1] is T1, TssK-Strep of Acinetobacter baumannii (Acinetobacter baumannii 17978) (UniProt R9RHI9).
T1 sequence: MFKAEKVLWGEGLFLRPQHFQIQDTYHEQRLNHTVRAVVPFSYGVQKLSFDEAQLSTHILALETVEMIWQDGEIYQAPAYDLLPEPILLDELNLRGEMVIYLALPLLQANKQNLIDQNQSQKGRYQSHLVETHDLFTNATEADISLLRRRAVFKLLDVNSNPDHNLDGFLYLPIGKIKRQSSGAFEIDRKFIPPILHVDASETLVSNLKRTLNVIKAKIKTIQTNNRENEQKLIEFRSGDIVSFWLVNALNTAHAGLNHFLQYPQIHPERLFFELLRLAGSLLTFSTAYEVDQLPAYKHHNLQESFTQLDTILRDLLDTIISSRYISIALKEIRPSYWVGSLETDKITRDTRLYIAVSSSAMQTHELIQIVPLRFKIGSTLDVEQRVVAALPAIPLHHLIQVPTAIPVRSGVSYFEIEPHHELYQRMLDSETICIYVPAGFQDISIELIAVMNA
The experiment can be described thus: pull-down; affinity copurification: soluble extracts of E. coli BL21(DE3) coproducing Strep-tagged TssK and Flag-tagged TssG loaded on a StrepTrap HP column in 50 mM Tris-HCl pH 8.0, 150 mM NaCl, eluted with 2.5 mM desthiobiotin; immunoblot of lysate, flowthrough, wash and eluate. On the technique in general: In western blotting, separated proteins are transferred to a membrane and probed.

In experiment [2] the target is Strep-tagged TssK L14A (EAEC) (enteroaggregative Escherichia coli (EAEC) 17-2). As to the kind of experiment: ITC; 25 μM TssK in the cell, 1 mM peptide in the syringe; 50 mM HEPES pH 7.0, 150 mM NaCl, 25°C; One Set of Sites model; both purified.
Experiment [3] has as its target Strep-tagged TssK W8A (EAEC) (enteroaggregative Escherichia coli (EAEC) 17-2). The experiment can be described thus: pull-down; affinity copurification: soluble extracts of E. coli BL21(DE3) coproducing Strep-tagged TssK and Flag-tagged TssG loaded on a StrepTrap HP column in 50 mM Tris-HCl pH 8.0, 150 mM NaCl, eluted with 2.5 mM desthiobiotin; immunoblot of lysate, flowthrough, wash and eluate.

No constants are given. Whether binding was seen depends on the method and setting. For part of these data: In cells and extracts the contact can be indirect. For part of these data: Binding calls can cover weak binding; strength is not graded here. For part of these data: Tags and fused reporters may be left off the sequences shown.

Regarding Flag-tagged TssG (EAEC), in experiment [1], the binding result is “binds”.

In the case of SRPVMGSRPVMGSRPVMG (head-to-tail cyclization) [biomimetic cyclic peptide (BCP)], the binding entry in experiment [2] is “no binding (tested: 25 μM TssK L14A, 1 mM WT BCP)”.

B1: Flag-tagged TssG of Acinetobacter baumannii (protein, UniProt R9RIP0 1-332)
chain: MQSERWWQDSSITAELFQRPKSFEFIQATRLLRHSPANDSFSSWTDHFKFETSFNLNFPATEIESLELVDERVHLTNLIVGLTGIQGALPYTYTNKIKQAPRQQRAETKEFLSLFNHKLTSQYVESSITYHLPVRYEIENKNDYLDILHALNGYVRSQHQQQDLDEYFAEFSGLMQGQNNTVHALKTMLSCIFKHEITIKEFIQESFKLASDQLTTLGGSQPSLLGINTFCGETIQQIDGKIEIQIGPLKRQQYLKFLPHQELSLKLKKIVETWCSPTLSIDLRLILDESEIQPIRLTQSEESGLGQGAFLMSRKPSTHSHETCYSLIGEQI
Consider B1, for which the binding entry in experiment [3] is reported as “no binding”.
